The experiment has as its system P388 leukemia ip, CD2F1 mice, survival T/C. The experiment can be described thus: NCI In Vivo Anticancer Drug Screen. Data for tumor model P388 Leukemia (intraperitoneal) in CD2F1 (CDF1) mice. The following applies: T/C endpoint: median survival time, higher T/C = longer survival.
[1] abbreviates: dose: 200.0 mg/kg/injection, schedule: Q01DX005 (ip), vehicle: Klucel (hydroxypropylcellulose) (HPC).
The mark [2] stands for this setting: dose: 100.0 mg/kg/injection, schedule: Q01DX005 (ip), vehicle: saline with Tween-80.
Where [3] appears, read: dose: 200.0 mg/kg/injection, schedule: Q01DX005 (ip), vehicle: saline with Tween-80.
Setting [4] is: dose: 240.0 mg/kg/injection, schedule: Q01DX005 (ip), vehicle: Klucel (hydroxypropylcellulose) (HPC).
[5] abbreviates: dose: 120.0 mg/kg/injection, schedule: Q01DX005 (ip), vehicle: Klucel (hydroxypropylcellulose) (HPC).
The mark [6] stands for this setting: dose: 200.0 mg/kg/injection, schedule: Q01DX009 (ip), vehicle: saline with Tween-80.
[7] abbreviates: dose: 200.0 mg/kg/injection, schedule: Q01DX009 (ip), vehicle: saline.

The list is a part of this screen's results and no random one: it gathers tests that were run many times, whatever their T/C, doses with no T/C, and many T/C values between a quarter and a half above the control. Further doses and runs are listed elsewhere. T/C: endpoint of the treated group in % of that of the vehicle group. Some doses have a count of surviving animals in place of a T/C: the source holds a T/C of zero for them, seemingly a mark for toxic or unscored doses. Some doses without a T/C left all or most animals alive at the check, yet need not have been tolerated: survival well below the control is almost never listed, so the zero probably covers shortened survival too. Counts of survivors are from the toxicity check (mostly the fifth day) where no day follows; animals may have died later. Schedule codes are those of the source, read here as Q, the interval in days (D) or hours (H), X, the number of doses. Some entries hold several experiments; their values stand side by side, smallest first. Some structures stand for samples that the source files as different forms (salt, stereo form or complex); doses refer to the form tested. Where survival is the endpoint, this PubChem deposit counts one and a half times the control or more as active, and values a quarter to a half above the control carry no call in these data; other NCI protocols may use other cut-offs. Some T/C values are followed by the survivors on the day toxicity was checked, most often the fifth; without a count, all were alive then.

On to `COC1OC(COS(=O)(=O)c2ccc(C)cc2)C2OC(C)(C)OC12` (stereo not given), for which the survivor count under setting [1] is recorded as 5 of 5.
Turning to `CCCCN(CCCC)C(=N)OC`, the survivor count is given as 1 of 5 (dose: 100.0 mg/kg/injection, schedule: Q01DX005 (ip), vehicle: saline) and 0 of 5 (dose: 200.0 mg/kg/injection, schedule: Q01DX005 (ip), vehicle: saline).
For the molecule `C/C(=N\NC(=S)N1CC(C)OC(C)C1)c1cnccn1` (stereo not given), the survivor count was 3 of 6 under setting [2] and 0 of 6 under setting [3].
Regarding `CC1(C)CC(=O)C(C(c2ccc3c(c2)OCO3)N2CCOCC2)C(=O)C1` (stereo not given), the survivor count under setting [4] was 1 of 6.
With `NC(=S)N/N=C\c1nccc2ncccc12`, the T/C (dose: 25.0 mg/kg/injection, schedule: Q04DX002 (ip), vehicle: saline with Tween-80) was 125 % of control.
As for `N#Cc1cc([N+](=O)[O-])cnc1Sc1ncccn1`, the survivor count is listed as 4 of 6 (dose: 50.0 mg/kg/injection, schedule: Q01DX009 (ip), vehicle: Klucel (hydroxypropylcellulose) (HPC)); 0 of 6 (dose: 100.0 mg/kg/injection, schedule: Q01DX009 (ip), vehicle: Klucel (hydroxypropylcellulose) (HPC)); 0 of 6 (dose: 200.0 mg/kg/injection, schedule: Q01DX009 (ip), vehicle: Klucel (hydroxypropylcellulose) (HPC)).
Consider `N#Cc1ccc(NN=NCCO)cc1`, for which the T/C (dose: 200.0 mg/kg/injection, schedule: Q01DX009 (ip), vehicle: distilled water + Tween-80) is 128 % of control.
With `NS(=O)(=O)c1cc([N+](=O)[O-])sc1SSc1sc([N+](=O)[O-])cc1S(N)(=O)=O`, the survivor count runs as follows: (dose: 100.0 mg/kg/injection, schedule: Q01DX001 (ip), vehicle: saline with Tween-80) 0 of 6; (dose: 200.0 mg/kg/injection, schedule: Q01DX001 (ip), vehicle: saline with Tween-80) 0 of 6; (dose: 400.0 mg/kg/injection, schedule: Q01DX001 (ip), vehicle: saline with Tween-80) 0 of 6.
With `Cl[C](Cl)(Cl)[Hg][c]1ccccc1`, where the note is “dose: 24.0 mg/kg/injection, schedule: Q01DX009 (ip), vehicle: saline with Tween-80”, the survivor count is reported as 0 of 6.
In the case of `COC(=O)[C@H](C)C1OC(O)C=CC1=O` (stereo not given in full), the survivor count is, setting by setting: (dose: 100.0 mg/kg/injection, schedule: Q01DX001 (ip), vehicle: saline + Tween-80 + alcohol) 1 of 6; (dose: 200.0 mg/kg/injection, schedule: Q01DX001 (ip), vehicle: saline + Tween-80 + alcohol) 0 of 6; (dose: 400.0 mg/kg/injection, schedule: Q01DX001 (ip), vehicle: saline + Tween-80 + alcohol) 0 of 6.
`Cc1c2ccccc2c(CSC(=N)N)c2ccccc12`: the T/C reads like this: (dose: 2.2 mg/kg/injection, schedule: Q01DX009 (ip), vehicle: saline) 130 % of control; (dose: 3.3 mg/kg/injection, schedule: Q01DX009 (ip), vehicle: saline) 130 % of control.
In the case of `Cc1ccc2cccc(CC(=O)NN)c2c1`, where the note is “dose: 240.0 mg/kg/injection, schedule: Q01DX005 (ip), vehicle: saline with Tween-80”, the survivor count is given as 3 of 6.
As for `C/C(=N/NC(=O)O[C@@H]1C[C@H](C)CC[C@H]1C(C)C)c1cc[c]([Sn]([CH3])([Cl])[c]2ccccc2)cc1` (stereo not given in full), the survivor count is, setting by setting: (dose: 15.0 mg/kg/injection, schedule: Q01DX005 (ip), vehicle: Klucel (hydroxypropylcellulose) (HPC)) 0 of 6; (dose: 60.0 mg/kg/injection, schedule: Q01DX005 (ip), vehicle: Klucel (hydroxypropylcellulose) (HPC)) 0 of 6; under setting [5], 0 of 6; under setting [4], 0 of 6.
For `N#CN1C2C=CC(c3ccccc3)NC21` (stereo not given), the survivor count under setting [6] is on record as 0 of 6.
Regarding `O=NN(CCF)C(=O)NCCF`, the T/C (dose: 0.37 mg/kg/injection, schedule: Q01DX009 (ip), vehicle: saline) is 127 % of control. Also, the survivor count is 4 of 6 (dose: 5.0 mg/kg/injection, schedule: Q01DX009 (ip), vehicle: saline); 0 of 6 (dose: 10.0 mg/kg/injection, schedule: Q01DX009 (ip), vehicle: saline); 0 of 6 (dose: 20.0 mg/kg/injection, schedule: Q01DX009 (ip), vehicle: saline).
With `COC1=CC(=Nc2cc(Br)c(O)c(Br)c2)C=CC1=O`, the survivor count is on record as 3 of 5 under setting [2] and 0 of 5 under setting [3].
In the case of `COC(=O)c1cc2cc3c(c(O)c2c(=O)o1)OC1(Cc2c(O)c4c(c(O)c2O1)C(=O)C(OC)CC4=O)CC3O` (stereo not given), the survivor count is, setting by setting: (dose: 100.0 mg/kg/injection, schedule: Q01DX009 (ip), vehicle: saline with Tween-80) 4 of 6 and 6 of 6; under setting [6], 5 of 6; (dose: 400.0 mg/kg/injection, schedule: Q01DX009 (ip), vehicle: saline with Tween-80) 2 of 6.
Turning to `COc1ccc2[nH]c3c(c2c1)C(=O)c1ccncc1C3=O`, the survivor count by setting is: (dose: 18.75 mg/kg/injection, schedule: Q04DX002 (ip), vehicle: Klucel (hydroxypropylcellulose) (HPC)) 6 of 6; (dose: 150.0 mg/kg/injection, schedule: Q04DX002 (ip), vehicle: Klucel (hydroxypropylcellulose) (HPC)) 6 of 6.
On to `CCCCCCCCCCC[CH2][Sn]([CH3])([CH3])[O]C(C)=O`, for which the survivor count (dose: 50.0 mg/kg/injection, schedule: Q01DX009 (ip), vehicle: saline) is 5 of 6; the survivor count (dose: 100.0 mg/kg/injection, schedule: Q01DX009 (ip), vehicle: saline) was 4 of 6; the survivor count under setting [7] is listed as 1 of 6.
On to `CCCCN(CCCC)C(=S)S`, for which the survivor count is recorded as 6 of 6 under setting [5] and 4 of 6 under setting [4].
Turning to `O=C(O)c1c(Cl)c(Cl)c(Cl)c(Cl)c1-c1c2cc(I)c(=O)c(I)c-2oc2c(I)c(O)c(I)cc12`, the survivor count is, setting by setting: under setting [3], 3 of 5; under setting [7], 3 of 6.
Turning to `CCOC(=O)C1=C(O)C[C@]2(O)C3CC=C(C)[C@@H]4CCO[C@](OC)(C[C@H]2C1)[C@]34C(=O)OC` (stereo not given in full), the survivor count under setting [3] is reported as 6 of 6.
Take `O=[C-]/C=C\[C-]=O.[C-]#[O+].[C-]#[O+].[C-]#[O+].[C-]#[O+].[Fe+2]`: the survivor count is 0 of 6 (dose: 50.0 mg/kg/injection, schedule: Q01DX005 (ip), vehicle: saline with Tween-80); 3 of 6 under setting [2]; 0 of 6 under setting [3].
Turning to `O=C1c2ccccc2C(=O)c2c(NCCCC3CCCN4CCCCC34)cccc21` (stereo not given), the survivor count under setting [1] is recorded as 0 of 6.
With `Cc1nc2c(N)cc(Cl)cc2[nH]1`, the T/C (dose: 200.0 mg/kg/injection, schedule: Q01DX005 (ip), vehicle: saline + Tween-80 + alcohol) was 146 % of control [5 of 6 alive]. Also, the survivor count (dose: 400.0 mg/kg/injection, schedule: Q01DX005 (ip), vehicle: saline with Tween-80) is given as 0 of 6.
As for `CC1CC2OC(/C=C/C=C/C=C/C=C\C=C\C(O)=C3/C(=O)C(C(C)C)N(C)C3=O)C(O)C2O1` (stereo not given), the survivor count by setting is: (dose: 5.0 mg/kg/injection, schedule: Q01DX005 (ip), vehicle: saline with Tween-80) 5 of 6; (dose: 10.0 mg/kg/injection, schedule: Q01DX005 (ip), vehicle: saline with Tween-80) 6 of 6; (dose: 20.0 mg/kg/injection, schedule: Q01DX005 (ip), vehicle: saline with Tween-80) 5 of 6; (dose: 40.0 mg/kg/injection, schedule: Q01DX005 (ip), vehicle: saline with Tween-80) 1 of 6.

The values are drawn from PubChem BioAssay AID330 (DTP/NCI, 2004).
